This note sets out measurements from US9266878B2, “Phosphatidylinositol 3-kinase inhibitors” (Gilead Calistoga LLC, priority 2012, dated 2016).

Amino acid sequences for entries named in this document (tags omitted). A change or cut given only in a name is not applied to a line headed by its entry.
UniProt P42336, whole entry: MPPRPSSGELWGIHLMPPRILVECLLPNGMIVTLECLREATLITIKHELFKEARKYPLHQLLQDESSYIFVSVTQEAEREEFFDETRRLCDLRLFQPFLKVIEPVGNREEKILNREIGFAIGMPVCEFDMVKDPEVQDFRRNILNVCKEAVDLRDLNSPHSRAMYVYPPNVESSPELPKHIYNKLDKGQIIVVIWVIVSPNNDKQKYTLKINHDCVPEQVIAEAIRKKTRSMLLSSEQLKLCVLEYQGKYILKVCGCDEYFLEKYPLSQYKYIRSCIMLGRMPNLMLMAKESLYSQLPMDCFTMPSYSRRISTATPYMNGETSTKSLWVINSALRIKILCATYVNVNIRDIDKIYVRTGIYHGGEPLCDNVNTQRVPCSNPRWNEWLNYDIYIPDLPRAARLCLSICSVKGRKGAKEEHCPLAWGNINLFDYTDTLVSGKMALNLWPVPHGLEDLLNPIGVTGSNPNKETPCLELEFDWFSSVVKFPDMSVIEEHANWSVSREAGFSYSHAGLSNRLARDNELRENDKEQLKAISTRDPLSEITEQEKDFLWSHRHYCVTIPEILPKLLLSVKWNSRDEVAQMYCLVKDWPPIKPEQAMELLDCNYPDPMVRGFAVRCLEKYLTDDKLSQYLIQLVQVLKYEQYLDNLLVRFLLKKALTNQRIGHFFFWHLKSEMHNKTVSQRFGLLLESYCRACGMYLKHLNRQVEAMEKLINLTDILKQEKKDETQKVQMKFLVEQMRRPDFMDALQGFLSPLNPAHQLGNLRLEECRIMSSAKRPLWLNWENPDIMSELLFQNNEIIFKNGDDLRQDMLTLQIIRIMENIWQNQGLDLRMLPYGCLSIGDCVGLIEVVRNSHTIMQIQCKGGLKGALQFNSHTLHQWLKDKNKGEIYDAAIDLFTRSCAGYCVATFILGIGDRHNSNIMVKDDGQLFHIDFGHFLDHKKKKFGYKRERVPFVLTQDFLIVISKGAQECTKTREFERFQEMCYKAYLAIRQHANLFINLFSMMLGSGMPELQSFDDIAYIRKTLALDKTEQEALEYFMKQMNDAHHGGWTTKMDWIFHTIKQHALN
UniProt P42338, whole entry: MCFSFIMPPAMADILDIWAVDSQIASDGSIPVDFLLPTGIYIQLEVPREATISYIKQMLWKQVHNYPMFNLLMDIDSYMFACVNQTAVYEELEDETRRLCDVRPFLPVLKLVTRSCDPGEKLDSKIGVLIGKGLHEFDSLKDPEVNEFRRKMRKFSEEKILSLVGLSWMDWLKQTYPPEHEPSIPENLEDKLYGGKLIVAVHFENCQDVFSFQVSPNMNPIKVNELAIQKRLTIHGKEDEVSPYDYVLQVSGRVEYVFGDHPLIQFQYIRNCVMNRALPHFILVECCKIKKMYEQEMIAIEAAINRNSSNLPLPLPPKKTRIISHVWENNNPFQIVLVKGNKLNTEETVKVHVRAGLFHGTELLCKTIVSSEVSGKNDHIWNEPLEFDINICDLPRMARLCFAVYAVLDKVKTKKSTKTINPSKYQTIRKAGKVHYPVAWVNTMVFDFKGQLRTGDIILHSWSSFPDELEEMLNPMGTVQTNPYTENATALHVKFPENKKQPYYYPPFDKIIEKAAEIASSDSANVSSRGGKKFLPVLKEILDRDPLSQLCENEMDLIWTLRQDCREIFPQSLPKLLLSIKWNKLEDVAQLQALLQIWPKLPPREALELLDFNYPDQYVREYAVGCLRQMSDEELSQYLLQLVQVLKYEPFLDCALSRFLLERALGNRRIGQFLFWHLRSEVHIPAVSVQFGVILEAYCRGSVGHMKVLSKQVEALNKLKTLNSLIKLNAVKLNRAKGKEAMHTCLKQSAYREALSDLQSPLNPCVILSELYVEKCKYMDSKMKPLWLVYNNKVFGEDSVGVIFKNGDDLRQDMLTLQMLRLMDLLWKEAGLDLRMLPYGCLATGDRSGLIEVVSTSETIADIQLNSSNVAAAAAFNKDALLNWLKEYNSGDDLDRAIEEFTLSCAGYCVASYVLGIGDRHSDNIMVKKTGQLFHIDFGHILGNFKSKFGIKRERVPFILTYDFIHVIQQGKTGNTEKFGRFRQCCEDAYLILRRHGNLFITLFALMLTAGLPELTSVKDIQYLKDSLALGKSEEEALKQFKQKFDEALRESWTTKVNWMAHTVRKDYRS
UniProt P48736, whole entry: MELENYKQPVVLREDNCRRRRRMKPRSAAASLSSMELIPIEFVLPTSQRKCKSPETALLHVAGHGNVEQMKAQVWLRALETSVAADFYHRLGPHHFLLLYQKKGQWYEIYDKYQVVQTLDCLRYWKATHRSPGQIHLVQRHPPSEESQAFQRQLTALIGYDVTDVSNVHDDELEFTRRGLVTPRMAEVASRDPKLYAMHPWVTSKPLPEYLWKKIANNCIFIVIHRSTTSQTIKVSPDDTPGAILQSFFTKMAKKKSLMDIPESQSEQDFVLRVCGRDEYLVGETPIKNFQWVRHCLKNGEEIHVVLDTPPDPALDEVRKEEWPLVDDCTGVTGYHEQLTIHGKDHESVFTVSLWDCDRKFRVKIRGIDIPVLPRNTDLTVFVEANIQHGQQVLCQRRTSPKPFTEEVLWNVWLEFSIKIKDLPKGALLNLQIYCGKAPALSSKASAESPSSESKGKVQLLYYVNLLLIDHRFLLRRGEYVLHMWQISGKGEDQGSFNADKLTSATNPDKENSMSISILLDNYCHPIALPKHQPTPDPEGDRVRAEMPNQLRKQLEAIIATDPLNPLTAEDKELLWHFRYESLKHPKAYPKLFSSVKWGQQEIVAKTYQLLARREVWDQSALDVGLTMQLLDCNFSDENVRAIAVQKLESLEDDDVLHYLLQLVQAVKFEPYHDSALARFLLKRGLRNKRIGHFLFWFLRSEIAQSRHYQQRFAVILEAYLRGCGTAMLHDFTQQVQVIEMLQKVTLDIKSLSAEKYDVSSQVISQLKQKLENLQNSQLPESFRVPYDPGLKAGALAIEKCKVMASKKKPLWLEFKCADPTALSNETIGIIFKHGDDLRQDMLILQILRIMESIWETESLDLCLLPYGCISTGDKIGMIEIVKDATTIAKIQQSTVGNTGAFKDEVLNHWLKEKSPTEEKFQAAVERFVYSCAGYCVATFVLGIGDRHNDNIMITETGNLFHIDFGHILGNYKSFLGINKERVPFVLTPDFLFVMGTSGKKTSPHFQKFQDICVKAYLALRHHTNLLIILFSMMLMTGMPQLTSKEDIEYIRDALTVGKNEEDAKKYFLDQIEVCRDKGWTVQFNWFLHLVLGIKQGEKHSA
UniProt O00329, whole entry: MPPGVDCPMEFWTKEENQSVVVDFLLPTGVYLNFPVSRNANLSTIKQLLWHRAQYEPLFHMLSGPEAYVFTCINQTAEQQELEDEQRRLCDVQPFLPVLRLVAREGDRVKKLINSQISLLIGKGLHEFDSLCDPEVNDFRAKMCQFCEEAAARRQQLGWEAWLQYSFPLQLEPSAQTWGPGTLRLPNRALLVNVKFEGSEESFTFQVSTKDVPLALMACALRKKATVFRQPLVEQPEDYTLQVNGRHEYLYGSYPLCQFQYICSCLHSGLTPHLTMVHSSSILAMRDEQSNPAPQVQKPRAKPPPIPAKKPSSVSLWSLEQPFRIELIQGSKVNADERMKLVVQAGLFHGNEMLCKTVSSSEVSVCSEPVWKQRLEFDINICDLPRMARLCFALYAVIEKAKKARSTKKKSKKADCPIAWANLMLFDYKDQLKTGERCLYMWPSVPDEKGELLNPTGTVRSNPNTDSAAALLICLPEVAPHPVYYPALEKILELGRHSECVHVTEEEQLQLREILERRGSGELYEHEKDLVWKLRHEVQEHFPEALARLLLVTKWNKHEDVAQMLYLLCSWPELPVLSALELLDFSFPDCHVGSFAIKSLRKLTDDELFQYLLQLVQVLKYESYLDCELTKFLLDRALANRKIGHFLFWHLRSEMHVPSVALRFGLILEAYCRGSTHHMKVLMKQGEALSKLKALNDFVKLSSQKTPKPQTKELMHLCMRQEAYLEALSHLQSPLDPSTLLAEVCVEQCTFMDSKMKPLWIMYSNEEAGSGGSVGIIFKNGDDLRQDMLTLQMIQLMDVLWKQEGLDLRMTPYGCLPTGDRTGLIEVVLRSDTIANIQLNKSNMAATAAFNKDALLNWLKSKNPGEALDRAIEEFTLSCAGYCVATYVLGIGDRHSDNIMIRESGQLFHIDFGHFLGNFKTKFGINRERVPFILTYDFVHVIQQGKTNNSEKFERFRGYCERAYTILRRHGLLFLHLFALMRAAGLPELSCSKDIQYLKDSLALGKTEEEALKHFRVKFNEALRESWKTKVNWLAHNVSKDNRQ
UniProt P27986, whole entry partner: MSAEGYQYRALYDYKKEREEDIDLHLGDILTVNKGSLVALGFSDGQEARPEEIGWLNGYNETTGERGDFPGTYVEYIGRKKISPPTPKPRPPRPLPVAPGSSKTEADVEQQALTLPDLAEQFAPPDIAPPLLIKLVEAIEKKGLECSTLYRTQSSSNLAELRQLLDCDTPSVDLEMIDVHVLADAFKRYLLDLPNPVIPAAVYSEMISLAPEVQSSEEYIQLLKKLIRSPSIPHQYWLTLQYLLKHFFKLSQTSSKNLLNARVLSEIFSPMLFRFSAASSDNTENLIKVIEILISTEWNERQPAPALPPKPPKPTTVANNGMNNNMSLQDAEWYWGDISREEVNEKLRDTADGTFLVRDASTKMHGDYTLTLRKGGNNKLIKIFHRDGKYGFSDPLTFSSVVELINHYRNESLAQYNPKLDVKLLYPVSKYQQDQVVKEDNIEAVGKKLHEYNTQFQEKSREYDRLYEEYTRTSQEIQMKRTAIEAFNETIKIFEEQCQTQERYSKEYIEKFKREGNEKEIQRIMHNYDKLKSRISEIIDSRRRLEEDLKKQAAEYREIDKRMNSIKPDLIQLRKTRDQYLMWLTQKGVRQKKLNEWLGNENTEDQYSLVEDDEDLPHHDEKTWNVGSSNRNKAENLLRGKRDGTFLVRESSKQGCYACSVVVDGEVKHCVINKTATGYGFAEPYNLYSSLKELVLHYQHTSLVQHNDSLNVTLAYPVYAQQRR
UniProt Q8WYR1, whole entry partner: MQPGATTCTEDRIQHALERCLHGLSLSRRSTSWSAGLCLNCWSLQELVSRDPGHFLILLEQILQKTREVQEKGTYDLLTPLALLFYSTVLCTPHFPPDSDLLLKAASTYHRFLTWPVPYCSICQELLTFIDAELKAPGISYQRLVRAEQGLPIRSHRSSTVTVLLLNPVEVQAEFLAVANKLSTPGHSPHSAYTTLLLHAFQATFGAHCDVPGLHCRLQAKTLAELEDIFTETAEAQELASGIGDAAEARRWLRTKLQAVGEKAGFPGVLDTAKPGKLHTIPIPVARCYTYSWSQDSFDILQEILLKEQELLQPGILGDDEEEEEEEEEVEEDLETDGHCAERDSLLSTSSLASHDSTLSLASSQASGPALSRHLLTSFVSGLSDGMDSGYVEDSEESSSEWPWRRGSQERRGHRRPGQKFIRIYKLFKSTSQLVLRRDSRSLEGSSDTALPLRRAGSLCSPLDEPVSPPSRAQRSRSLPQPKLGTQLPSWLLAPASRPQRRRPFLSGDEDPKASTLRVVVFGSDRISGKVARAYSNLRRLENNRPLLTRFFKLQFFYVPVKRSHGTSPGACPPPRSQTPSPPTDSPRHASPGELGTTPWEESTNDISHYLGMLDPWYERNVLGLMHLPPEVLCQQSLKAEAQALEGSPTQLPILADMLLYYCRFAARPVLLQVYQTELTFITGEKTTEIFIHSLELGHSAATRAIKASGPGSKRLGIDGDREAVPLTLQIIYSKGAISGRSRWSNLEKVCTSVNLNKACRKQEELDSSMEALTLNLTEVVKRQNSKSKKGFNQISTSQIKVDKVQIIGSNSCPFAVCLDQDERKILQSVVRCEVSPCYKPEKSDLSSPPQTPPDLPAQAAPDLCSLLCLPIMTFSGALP

Structures were worked out from names or drawings and are uncertain.

Test in all cases: Enzymatic activity of PI3K isoforms, TR-FRET assay (PIP3 formation)
One test deals with PI3Kα (Homo sapiens (Human), UniProt P42336). Conditions: read-out: IC50-PIP-α, bound given in uM.
The target of the next test is PI3Kβ (Homo sapiens (Human), UniProt P42338). Conditions: read-out: IC50-PIP-β, bound given in uM.
The target of a further test is PI3Kγ (Homo sapiens (Human), UniProt P48736). Conditions: read-out: IC50-PIP-γ, bound given in uM.
A further test deals with PI3Kδ (Homo sapiens (Human), UniProt O00329). Conditions: read-out: IC50-PIP-δ, bound given in nM.

As a reminder, the IC50 is the concentration that gives 50% inhibition.

As to `C[C@@H](Nc1ncnc(N)c1C#Cc1ccc(F)cn1)c1nc2cccc(Cl)c2c(=O)n1-c1cc(F)cc(F)c1`, the IC50 was over 1 µM at PI3Kα, over 1 µM at PI3Kβ, over 1 µM on PI3Kγ and under 100 nM on PI3Kδ.
